{"source": "PubChem BioAssay AID624405", "about": "(Broad Institute, 2012)", "note": "The campaign covered roughly 1,900 compounds. About 250 (13%) were called active. Roughly 4% stayed inconclusive and do not appear here.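 The calls were made as follows: active = fitted curve reaches 40% rescue activity at or below the top valid dose, in every test run; inconclusive = test runs disagree, some active and some inactive; inactive = every run misses the threshold or moves the wrong way.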 Only a part is listed here, and it is no random draw. Entries with a potency or affinity are not part of this list.", "data": [{"assay": "rescue of simvastatin-induced ATP loss – cell-based, C2C12 myotubes, ATP luminescence, cherry pick, dose response (AID 624405);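 also: myotubes are challenged with simvastatin at 10 µM to lower ATP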", "settings": "48 h, scaled: DMSO wells 0, geranylgeraniol wells 100; at 19.5 µM (top of the series) unless noted", "values": [{"compound": "NC(=O)c1ncc(C(F)(F)F)cc1Oc1ccc(F)cc1", "rescue activity (ATP increase)": "inactive: -11.2%"}, {"compound": "Cc1ccc(S(=O)(=O)N(C)Cc2ccc(-c3nnco3)cc2)cc1", "rescue activity (ATP increase)": "inactive: -11.4%"}, {"compound": "Cc1ccc(NS(=O)(=O)c2ccc(-n3cccn3)cc2)c(C)c1", "rescue activity (ATP increase)": "inactive: 39.9%"}, {"compound": "COc1ccc(-n2c(SCC(=O)N3CCCCC3)nc(O)cc2=O)cc1", "rescue activity (ATP increase)": "inactive: -3.25%"}, {"compound": "COc1ccc(S(=O)(=O)Nc2ccc3c(c2)C(=O)N([C@@H](C)CO)C[C@H](C)[C@@H](CN(C)S(=O)(=O)c2cccs2)OCCCC[C@@H](C)O3)cc1", "rescue activity (ATP increase)": "inactive: 11.9%"}, {"compound": "CCCCCCCNC(=O)C1(CC2CC(c3ccc(Cl)cc3)=NO2)CCN(C(=O)OC(C)(C)C)CC1", "note": "(stereo not drawn)", "rescue activity (ATP increase)": "inactive: 19%"}, {"compound": "C[C@H](CO)N1C[C@H](C)[C@H](CN(C)S(=O)(=O)c2ccc(F)cc2)Oc2ncc(C#Cc3cccc(F)c3)cc2C1=O", "rescue activity (ATP increase)": "inactive: 7.8%"}, {"compound": "Cc1ccccc1NC(=O)c1onc2c1CCCC2", "rescue activity (ATP increase)": "inactive: 19.9%"}, {"compound": "C/C(=N/NC(=O)c1ccc2c(c1)OCO2)c1cccc(NC(=O)C(C)(C)C)c1", "rescue activity (ATP increase)": "inactive: -39.2%"}, {"compound": "CCN(CC)c1ncnc2c1cnn2Cc1ccc(Cl)cc1", "rescue activity (ATP increase)": "inactive: 29.6%"}, {"compound": "CCOC(=O)N1CCN(C(=O)Cn2nc(C)c3sc4ccccc4c3c2=O)CC1", "rescue activity (ATP increase)": "inactive: 11.8%"}, {"compound": "C[C@H]1CCCCO[C@H](CN(C)C(=O)C2CCCCC2)[C@@H](C)CN([C@@H](C)CO)C(=O)c2cc(NC(=O)Cc3ccccc3)ccc2O1", "rescue activity (ATP increase)": "inactive: 1.27%"}, {"compound": "COc1ccc(COn2c(=O)c(C)[n+]([O-])c3ccccc32)cc1OC", "rescue activity (ATP increase)": "inactive: 15.1%"}, {"compound": "Cc1ccc(S(=O)(=O)Nc2ccc3c(c2)CC(=O)N([C@@H](C)CO)C[C@@H](C)[C@H](CN(C)Cc2ccc(Cl)c(Cl)c2)O3)cc1", "rescue activity (ATP increase)": "inactive: 29%"}, {"compound": "COc1cc(/C=C2\\SC(=S)N(NC(=O)c3ccc(O)c(OC)c3)C2=O)ccc1O", "rescue activity (ATP increase)": "inactive: -10.6%"}, {"compound": "O=C(c1ccc(CN2CCOCC2)cc1)N1CCN(c2cccc(Cl)c2)CC1", "rescue activity (ATP increase)": "inactive: -17.2%"}, {"compound": "C[C@@H]1CN([C@H](C)CO)C(=O)Cc2cc(NS(=O)(=O)c3ccc(F)cc3)ccc2O[C@H]1CN(C)Cc1ccc(Oc2ccccc2)cc1", "rescue activity (ATP increase)": "inactive: 33.8% [at 21 µM]"}, {"compound": "CCOCCn1c(COc2ccccc2)nc2ccccc21", "rescue activity (ATP increase)": "inactive: 17.6%"}, {"compound": "C[C@H]1CN([C@@H](C)CO)S(=O)(=O)c2ccc(-c3ccc(C(=O)N(C)C)cc3)cc2O[C@@H]1CN(C)C(=O)Cc1ccccn1", "rescue activity (ATP increase)": "inactive: 32.9%"}, {"compound": "O=C(NCC12CC3CC(CC(C3)C1)C2)c1nn2c(c1Cl)NC(c1ccco1)CC2C(F)(F)F", "note": "(stereo not drawn)", "rescue activity (ATP increase)": "inactive: 2.04%"}, {"compound": "CCN(C(=O)c1cnc(N2CCN(c3ncccn3)CC2)c2ccccc12)c1cccc(Cl)c1", "rescue activity (ATP increase)": "inactive: 28%"}, {"compound": "CCC1(CC)NC(=O)N(CC(=O)OCC(=O)Nc2ccc(C(F)(F)F)cc2)C1=O", "rescue activity (ATP increase)": "inactive: 23.8%"}, {"compound": "CC(=O)C[C@@H](O)CC(=O)[C@@H]1OC(=O)CCCCCCc2ccccc21", "rescue activity (ATP increase)": "inactive: 8.12%"}, {"compound": "C[C@H]1CN([C@@H](C)CO)C(=O)c2cc(NS(=O)(=O)c3ccccc3)ccc2O[C@@H]1CN(C)S(=O)(=O)c1cccs1", "rescue activity (ATP increase)": "inactive: 3%"}, {"compound": "CC(=O)Nc1ccc(NC(=O)CSc2nnc(C3CC3)n2C)cc1", "rescue activity (ATP increase)": "inactive: 15.5%"}, {"compound": "CCn1nnnc1SCC(=O)c1ccc(C)cc1C", "rescue activity (ATP increase)": "inactive: -11.8%"}, {"compound": "O=C(CSc1nc2c(cnn2-c2ccccc2)c(=O)[nH]1)N1CCOCC1", "rescue activity (ATP increase)": "inactive: -32.3%"}, {"compound": "COc1ccc(COc2ccccc2C(N)=O)cc1F", "rescue activity (ATP increase)": "inactive: 1.16%"}, {"compound": "C[C@H](CO)N1C[C@H](C)[C@@H](CN(C)Cc2ccc(-c3ccccc3)cc2)Oc2ccc(NC(=O)CCC(F)(F)F)cc2CC1=O", "rescue activity (ATP increase)": "inactive: 12.5%"}, {"compound": "COc1cc(OC)c(C2=NOC(C(=O)N3CCCc4ccccc43)C2)cc1Cl", "note": "(stereo not drawn)", "rescue activity (ATP increase)": "inactive: -4.45%"}, {"compound": "CCCCCCCC(=O)N/N=C/c1ccc(Br)cc1", "rescue activity (ATP increase)": "inactive: -24.9%"}, {"compound": "CCN1CCN(c2nc3sc4c(c3c3ncnn23)CC(C)CC4)CC1", "note": "(stereo not drawn)", "rescue activity (ATP increase)": "inactive: -9.58%"}, {"compound": "O=C(CSc1nnc(CNc2ccc(F)cc2)n1Cc1ccccc1)N1CCOCC1", "rescue activity (ATP increase)": "inactive: -5.13%"}, {"compound": "Cc1ccc(S(=O)(=O)Nc2ccc3c(c2)C(=O)N([C@H](C)CO)C[C@H](C)[C@@H](CN(C)Cc2ccc4c(c2)OCO4)OCCCC[C@H](C)O3)cc1", "rescue activity (ATP increase)": "inactive: -2.42%"}, {"compound": "C[C@@H]1CCCCO[C@H](CN(C)S(=O)(=O)c2cccs2)[C@@H](C)CN([C@@H](C)CO)C(=O)c2cc(NC(=O)Nc3ccc(F)cc3)ccc2O1", "rescue activity (ATP increase)": "inactive: -8.82%"}, {"compound": "O=C(Nc1ccccc1)Oc1cccc2cccnc12", "rescue activity (ATP increase)": "inactive: -6.01%"}, {"compound": "Cc1cc(NC(=O)c2cc(-c3cccs3)on2)nn1Cc1ccc(Cl)cc1", "rescue activity (ATP increase)": "inactive: 21%"}, {"compound": "O=c1[nH]c(Nc2ccccc2Cl)cc2ccccc12", "rescue activity (ATP increase)": "inactive: -28.7%"}, {"compound": "COc1ccc(CN2[C@@H]3CN(C(=O)c4ccccc4)c4ccccc4[C@@H]3[C@@H]2CO)cc1", "rescue activity (ATP increase)": "inactive: 12.5% [at 21 µM]"}, {"compound": "COc1ccc(NC(=O)N(C)C[C@H]2Oc3c(NC(=O)Nc4cccc5ccccc45)cccc3C(=O)N([C@H](C)CO)C[C@H]2C)cc1", "rescue activity (ATP increase)": "inactive: -7.61%"}, {"compound": "COc1ccc(C#Cc2cnc3c(c2)C(=O)N([C@H](C)CO)C[C@@H](C)[C@H](CN(C)C(=O)Nc2cccc(OC)c2)O3)cc1", "rescue activity (ATP increase)": "inactive: 31.8%"}, {"compound": "Nc1nc(SCC(=O)Nc2ccc(Cl)cc2)[nH]c(=O)c1-c1ccccc1", "rescue activity (ATP increase)": "inactive: -14.9%"}, {"compound": "C/C(=N\\NC(=O)c1nc(C)cc(C)n1)c1ccccc1", "rescue activity (ATP increase)": "inactive: 17.7%"}, {"compound": "C[C@@H]1CN([C@H](C)CO)C(=O)Cc2cc(NS(=O)(=O)c3cccs3)ccc2O[C@@H]1CN(C)Cc1ccc(Cl)c(Cl)c1", "rescue activity (ATP increase)": "inactive: 34.7%"}, {"compound": "COc1ccc(C2CC(=O)c3cnc(N)nc3C2)c(OC)c1", "note": "(stereo not drawn)", "rescue activity (ATP increase)": "inactive: -0.556%"}, {"compound": "CCCN1CCN(C(=O)Nc2ccc(C(=O)OCC)cc2)CC1", "rescue activity (ATP increase)": "inactive: -40.1%"}, {"compound": "C[C@H]1CN([C@@H](C)CO)C(=O)c2cc(NS(=O)(=O)c3ccc(Cl)cc3)ccc2O[C@@H]1CN(C)C(=O)Nc1ccc2c(c1)OCO2", "rescue activity (ATP increase)": "inactive: 3.96% [at 21 µM]"}, {"compound": "CC(C)c1ccc(NC(=O)[C@H]2CSCN2C(=O)[C@@H]2CCC(=O)N2)cc1", "rescue activity (ATP increase)": "inactive: -22.2%"}, {"compound": "COc1ccc(NC(=O)N2CC[C@@H]3[C@H]2c2cc(C4=CCCCC4)ccc2N(C)[C@H]3CO)cc1", "rescue activity (ATP increase)": "inactive: 33%"}, {"compound": "O=C(N1CCCCCC1)N1CCN(S(=O)(=O)N2CCCCC2)CC1", "rescue activity (ATP increase)": "inactive: -59.4%"}, {"compound": "C[C@H](CO)N1C[C@H](C)[C@@H](CN(C)C(=O)Nc2cccc3ccccc23)OCCCC[C@H](C)Oc2ccc(NS(=O)(=O)c3ccc(Cl)cc3)cc2C1=O", "rescue activity (ATP increase)": "inactive: 9.38%"}, {"compound": "CS(=O)(=O)N1CCN(c2cccc(Cl)n2)CC1", "rescue activity (ATP increase)": "inactive: 38.9%"}, {"compound": "CCOc1ccc(NCc2cccn2-c2nnc(N3CCC(C(=O)NCCCN4C(C)CCCC4C)CC3)s2)cc1", "note": "(stereo not drawn)", "rescue activity (ATP increase)": "inactive: -20.1%"}, {"compound": "CC1CCCCN1S(=O)(=O)c1ccc(C(=O)Nc2sccc2C(N)=O)cc1", "note": "(stereo not drawn)", "rescue activity (ATP increase)": "inactive: 39%"}, {"compound": "Cc1ccc(S(=O)(=O)Nc2ccc3c(c2)CC(=O)N([C@H](C)CO)C[C@@H](C)[C@H](CN(C)Cc2ccc(C(F)(F)F)cc2)O3)cc1", "rescue activity (ATP increase)": "inactive: 35.7% [at 21 µM]"}, {"compound": "Cc1cc(C(=O)OCC(=O)c2c(N)n(C)c(=O)n(C)c2=O)c(C)o1", "rescue activity (ATP increase)": "inactive: -12.8%"}, {"compound": "C[C@@H]1CCCCO[C@@H](CN(C)C(=O)Nc2cccc3ccccc23)[C@H](C)CN([C@H](C)CO)C(=O)c2cc(NS(=O)(=O)c3ccc(Cl)cc3)ccc2O1", "rescue activity (ATP increase)": "inactive: -2.76%"}, {"compound": "CC(C)(C)OC(=O)N1CCC(C(=O)N[C@@H](Cc2ccccc2)C(=O)O)CC1", "rescue activity (ATP increase)": "inactive: -16.6%"}, {"compound": "CCS(=O)(=O)c1ccc(-c2csc(-c3ccc(Cl)cc3)n2)c(Cl)c1Cl", "rescue activity (ATP increase)": "inactive: -81%"}, {"compound": "COc1ccc(S(=O)(=O)NNC(=O)c2ccccc2-n2cccc2)cc1", "rescue activity (ATP increase)": "inactive: 5.85%"}, {"compound": "O=C(C[C@@H]1CC[C@H]2[C@@H](COC[C@@H](O)CN2Cc2ccc(Oc3ccccc3)cc2)O1)Nc1nccs1", "rescue activity (ATP increase)": "inactive: 15.2%"}, {"compound": "COc1ccc(CN2CCn3ncc(C(=O)Nc4cccc(C)c4)c3C2=O)cc1", "rescue activity (ATP increase)": "inactive: -56.2%"}, {"compound": "COc1ccc(S(=O)(=O)Nc2ccc3c(c2)C(=O)N([C@@H](C)CO)C[C@@H](C)[C@H](CN(C)C(=O)Nc2c(C)noc2C)OCCCC[C@H](C)O3)cc1", "rescue activity (ATP increase)": "inactive: 3.09%"}, {"compound": "C[C@@H]1CN([C@H](C)CO)C(=O)Cc2cc(NS(=O)(=O)c3cccs3)ccc2O[C@@H]1CN(C)Cc1ccc(-c2ccccc2)cc1", "rescue activity (ATP increase)": "inactive: 40.7%"}, {"compound": "Cc1ccc(S(=O)(=O)Nc2cccc3c2O[C@@H](CN(C)Cc2ccc(C(F)(F)F)cc2)[C@H](C)CN([C@@H](C)CO)C3=O)cc1", "rescue activity (ATP increase)": "inactive: 20.9% [at 21 µM]"}, {"compound": "O=C(Nc1nccs1)[C@H]1[C@H](CO)[C@H]2Cn3c(ccc(-c4ccccc4)c3=O)[C@H]2N1CC1CCCC1", "rescue activity (ATP increase)": "inactive: 36.7%"}, {"compound": "OC[C@H]1[C@@H]2c3ccccc3NC[C@@H]2N1Cc1ccccc1Cl", "rescue activity (ATP increase)": "inactive: -11.1%"}, {"compound": "COc1ccccc1N(CC(=O)Nc1ccc2c(c1)OCCO2)S(C)(=O)=O", "rescue activity (ATP increase)": "inactive: 5.49%"}, {"compound": "CCOc1ccc(CNn2nnnc2N)cc1", "rescue activity (ATP increase)": "inactive: 16.8%"}, {"compound": "CCCCN(CCCC)S(=O)(=O)c1ccc(NC(=O)CN2CCOCC2)cc1", "rescue activity (ATP increase)": "inactive: 5.03%"}, {"compound": "Fc1ccccc1COc1ccc(-c2nnn(Cc3ccccc3F)n2)cc1", "rescue activity (ATP increase)": "inactive: -10.4%"}, {"compound": "Cc1cc(C(=O)Nc2ccc3c(c2)C(=O)N(C)[C@@H]2CC[C@@H](CC(=O)N[C@H](C)c4ccccc4)O[C@@H]2CO3)no1", "rescue activity (ATP increase)": "inactive: 26.1%"}, {"compound": "COc1ccc(NC(=O)Nc2ccc3c(c2)C(=O)N([C@H](C)CO)C[C@@H](C)[C@@H](CN(C)Cc2ccc(C(F)(F)F)cc2)OCCCC[C@@H](C)O3)cc1", "rescue activity (ATP increase)": "inactive: -2.15%"}]}]}
